Values from PubChem BioAssay AID1259308 (NCATS, 2017).
Purpose: 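Knock-downs that increase output of a recombinant reporter protein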 (primary screen). System: human HEK293 embryonic kidney cells stably expressing firefly luciferase (HEK-CMV-Luc2-Hygro). Reagents: single siRNA against human genes, 0.8 pmol siRNA per well. Duration: 72 h. Read-out: 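Luciferase light (ONE-Glo) measured on one replicate plate set and viability (CellTiter-Glo) on the other, scaled to a negative control siRNA, with robust z-scores and luciferase per cell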. Direction: total luciferase, z-score: higher = more reporter protein produced. Active means: 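Active when the median/MAD z-score for overall luciferase is greater than 3; a gene was taken forward for validation with new siRNAs if at least two of its three siRNAs passed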. Meaning of the calls: active = raised luciferase; inactive = no rise.
The whole screen tested about 59,000 reagents; this is an unselected part. About 1,510 of them (2.6%) count as active. 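Calls use total luciferase alone and ignore viability, so some active siRNAs may act by altering cell number.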 A number with no mark means an inactive call. Reagents against one gene are numbered here. Not all columns of the deposit are shown.

total luciferase, z-score, by target gene and reagent
PPA2: #1 2.13; #2 0.98; #3 -0.0861
ZNF703: #1 0.709; #2 0.174; #3 1.65
NOS2: #1 1.39; #2 0.0383; #3 0.64
LOC100128762: #1 0.046; #2 -0.385; #3 2.44
AMIGO2: #1 -1.48; #2 -0.941; #3 -0.576
FABP3: #1 0.0627; #2 -0.242; #3 -0.357
ZNF417: #1 0.435; #2 0.316; #3 -0.153
TRIM64C: #1 -0.988; #2 1.55; #3 -1.29
SAXO5: #1 0.767; #2 -1.14; #3 0.137
ZNF285CP: #1 0.548; #2 -0.874; #3 3.26 (active); #4 -2.42; #5 -0.382; #6 1.47
ZNF827: #1 0.599; #2 -0.186; #3 -0.949

Active calls (from the list above):
total luciferase, z-score, by target gene and reagent
ZNF285CP: #3 3.26 (active)

The results go on.
total luciferase, z-score, by target gene and reagent
CYP2U1: #1 0.594; #2 -0.608; #3 -0.216
OR5M10: #1 1.69; #2 -0.147; #3 -0.709
CSNK1G2-AS1: #1 -0.14; #2 -0.535; #3 -0.268
CHL1-AS2: #1 -2.02; #2 0.551; #3 -1.26
GPR12: #1 -0.602; #2 -0.0983; #3 0.292
PSEN2: #1 1.37; #2 -0.102; #3 0.852
TADA2A: #1 -1.33; #2 0.641; #3 -0.74
